# In patent US20090275504A1:
# The chains behind the UniProt entries cited, without tags or fusion partners. Where a name states a change or a piece, a line headed by the entry shows the natural chain unless it says otherwise.
# UniProt Q8NBP7: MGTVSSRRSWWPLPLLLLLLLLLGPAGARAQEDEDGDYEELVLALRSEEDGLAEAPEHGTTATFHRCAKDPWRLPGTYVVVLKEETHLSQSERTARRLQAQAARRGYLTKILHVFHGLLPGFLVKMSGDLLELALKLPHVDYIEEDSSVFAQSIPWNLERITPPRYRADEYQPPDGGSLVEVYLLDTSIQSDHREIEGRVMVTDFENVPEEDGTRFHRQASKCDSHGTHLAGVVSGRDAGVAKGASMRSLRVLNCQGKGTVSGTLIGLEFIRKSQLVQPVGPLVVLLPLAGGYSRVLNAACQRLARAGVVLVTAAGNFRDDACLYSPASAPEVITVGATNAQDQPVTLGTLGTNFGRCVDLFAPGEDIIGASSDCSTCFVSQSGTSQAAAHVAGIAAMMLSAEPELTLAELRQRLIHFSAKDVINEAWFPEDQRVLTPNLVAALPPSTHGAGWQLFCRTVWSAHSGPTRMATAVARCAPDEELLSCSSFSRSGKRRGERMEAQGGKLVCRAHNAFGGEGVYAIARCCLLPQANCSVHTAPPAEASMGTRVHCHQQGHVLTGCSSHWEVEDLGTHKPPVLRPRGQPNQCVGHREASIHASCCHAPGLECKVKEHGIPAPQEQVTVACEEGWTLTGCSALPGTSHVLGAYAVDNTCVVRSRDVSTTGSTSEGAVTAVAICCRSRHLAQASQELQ
# These are yes or no findings as the source states them, for the method shown. In cells and extracts the contact can be indirect. Some results given as binding are weak or reduced against the parent protein; the word gives no strength.
# Molecular target: mature PCSK9 (after autocatalytic cleavage at Gln152), secreted from HepG2 cells (human) (UniProt Q8NBP7)
# Assay: co-immunoprecipitation from 32P-labelled HepG2 media, SDS-PAGE, phosphorimaging
substance,measurement,value
"PCSK9 propeptide (prodomain), secreted from HepG2 cells (from UniProt Q8NBP7 31-152)",binding,binds
